“And” between values parts separate entries of the source, which are not always exact repeats. Identical values can stand only once. This is one part of the list. Potency and affinity values are given separately.
Test system: Acinetobacter baumannii
Conditions: Concentration 32 ug.mL-1, ASSAY_TEST Inhibition of Bacterial Growth, detection method Absorption (OD600), MEDIA CAMHB, plate type 384well, NBS, CORNING #3640, time 18 hr

Row | Compound | Inhibition [%] | Inhibition (32 ug/mL)
1 | C=C1CC(C(=O)OC)(C(=O)OC)C[C@@H]1[C@H](c1ccccc1)n1ccc2ccccc21 | 7.23 | 
2 | C[C@]12CC[C@@](c3ccccc3)(O1)[C@H]1C=C[C@H](OC(=O)c3ccccc3)[C@H]12 |  | 4.56% and -1.84%
3 | C[C@]12CC[C@@](C3CCCC3)(O1)[C@H]1C=C[C@H](OC(=O)c3ccccc3)[C@H]12 | 5.62 | 
4 | C[C@@H]1CC(=O)C=C2C(=O)[C@@H]3[C@@H](C3(C)C)[C@]21C | 9.25 | 
5 | C[C@]12CC[C@@](c3ccc4ccccc4c3)(O1)[C@H]1C=C[C@H](OC(=O)c3ccccc3)[C@H]12 | -6.23 | 
6 | C[C@]12CC[C@@](C3CC3)(O1)[C@H]1C=C[C@H](OC(=O)c3ccccc3)[C@H]12 |  | 2.05% and -3.29%
7 | C=C1CC(COC)(COC)C[C@@H]1[C@@H](Nc1ccc(Br)cc1)c1ccccc1 | -7.79 | 
8 | C=C1CC2(COC(C)(C)OC2)C[C@@H]1[C@@H](Nc1ccc(Br)cc1)c1ccccc1 | 4.44 | 
9 | C=C1CC(COCc2ccc(OC)cc2)(COCc2ccc(OC)cc2)C[C@@H]1[C@@H](Nc1ccc(Br)cc1)c1ccccc1 | -2.79 | 
10 | C[C@]12CC[C@@H](O1)[C@H]1C=C[C@H](OC(=O)c3ccccc3)[C@H]12 | 9.79 | 
11 | C=C1CC(C(=O)OC)(C(=O)OC)C[C@@H]1[C@@H](NS(=O)(=O)c1ccc(C)cc1)c1ccccc1 | 5.82 | 
12 | C[C@]12CC[C@@](c3ccc(C(F)(F)F)cc3)(O1)[C@H]1C=C[C@H](OC(=O)c3ccccc3)[C@H]12 |  | 1.01% and 0.68%
13 | C[C@]12CC[C@@](C)(O1)[C@H]1C=C[C@H](OC(=O)c3ccccc3)[C@H]12 | 3.33 | 
14 | C=C1CC(C(=O)OC)(C(=O)OC)C[C@@H]1[C@H](c1ccccc1)n1ccc2ccc(Cl)cc21 | -2.01 | 

— ChEMBL document CHEMBL4513151, “CO-ADD screening of Institut Català d'Investigació Química (Spain) compounds”
